# Data reported in US6511817B1, “Methods and device for in vitro detection and characterization of psychoactives using analysis of repetitive electrical activity in a neuronal sample” (Matsushita Electric Industrial Co., Ltd., priority 1999, dated 2003).
# At least one compound was matched to its structure with a doubt left.
# How the values were obtained:
# hippocampal slice = experiment: Effect of bath-applied drugs on carbachol-induced beta waves in hippocampal slices on a 64-electrode MED array, FFT analysis; type: cell-based, Sprague-Dawley rat; conditions: 10 μM bicuculline
# Excerpt: The general procedures for the preparation of the Multi-Electrode Dish (Matsushita Electric Industrial Co. Ltd., Osaka, Japan: “the MED probe”) were described above. Procedures for the MED probe preparation are also described by Oka et al. […]. The device has an array of 64 planar microelectrodes, each having a size of 50×50 μm, arranged in an 8 by 8 pattern. Probes come with two types of interpolar distance, 150 μm (Panasonic: MED-P515AP) and 450 μm (Panasonic: MED-P545AP).
# To provide sufficient adhesion of the neuronal sample slice to the MED surface, the surface of the MED probe was treated with 0.1% polyethylenimine (Sigma: P-3143) in 25 mM borate buffer, pH 8.4, for 8 hours at room temperature. The probe surface was rinsed 3 times with sterile distilled water. […]
# During electrophysiological recording, the slices on the MED probe were placed in a small CO2 incubator (Asahi Lifescience: model 4020) at 32° C. […] In this condition, the responses were recorded for more than 2 hours. […]
# Spontaneous and evoked field potentials at all 64 sites were recorded simultaneously with the multi-channel recording system (Matsushita Electric Industrial Co. Ltd, the “MED64 system”) at a 20 kHz sampling rate. […] The measured field potentials were then subjected to analysis using the CSD analysis (Nicholson et al) discussed below.
# [1] = tested on: hippocampal slice, field CA3; experiment: Beta-like activity elicited by orthodromic activation of field CA3; type: cell-based, Sprague-Dawley rat; conditions: 20 μM bicuculline
smiles,measurement,setting,value
CN1CCc2cc3c(cc2[C@H]1[C@@H]1OC(=O)c2c1ccc1c2OCO1)OCO3 [bicuculline],effect on carbachol-induced beta waves,hippocampal slice,marked reduction
same,effect on carbachol-induced high frequency rhythms,hippocampal slice,rhythmic activity was absent
same,effect on response to orthodromic stimulation of field CA3,[1],blocked
